Test results published in US9801901B2, “Alginate oligomers for use in overcoming multidrug resistance in bacteria” (priority 2009, dated 2017).
At least one compound was matched to its structure with a doubt left.

What was measured:
[1] = test system: Pseudomonas aeruginosa, Klebsiella pneumoniae and Acinetobacter baumannii strains; assay: MIC assay of Example 1, summary over the strains; type: cell-based; details: Example 1, Tables 1 and 2, all strains
MDR Providencia stuartii = assay: MIC-assay, Mueller-Hinton broth with G-block alginate, 384-well, OD600 (Table 11); type: cell-based
Text: Minimum inhibitory concentration (MICs) of different antibiotics for strains of E. coli and Providencia stuartii displaying MDR phenotypes in the presence of varying concentrations of OligoCF-5/20 (0-10%). (MIC values are expressed in μg ml^−1).

| Compound | change of MIC with increasing amounts of OligoG CF-5/20 [1] | change of MIC with OligoCF-5/20 (MDR Providencia stuartii) |
| --- | --- | --- |
| CN(C)[C@@H]1C(O)=C(C(N)=O)C(=O)[C@@]2(O)C(O)=C3C(=O)c4c(O)cccc4[C@@](C)(O)[C@H]3[C@H](O)[C@@H]12 [Oxytetracycline] | decreasing MICs | – |
| C[C@@H](O)[C@H]1C(=O)N2C(C(=O)O)=C(SCCN=CN)C[C@H]12 [Imipenem] | – | lower MIC values |
